Measurements from the supplement of paper PMC10849652.
The other results are listed elsewhere or left out.

Amino acid sequences for entries named in this document (tags omitted). A change or cut given only in a name is not applied to a line headed by its entry.
UniProt Q9NY65, whole entry, looked up: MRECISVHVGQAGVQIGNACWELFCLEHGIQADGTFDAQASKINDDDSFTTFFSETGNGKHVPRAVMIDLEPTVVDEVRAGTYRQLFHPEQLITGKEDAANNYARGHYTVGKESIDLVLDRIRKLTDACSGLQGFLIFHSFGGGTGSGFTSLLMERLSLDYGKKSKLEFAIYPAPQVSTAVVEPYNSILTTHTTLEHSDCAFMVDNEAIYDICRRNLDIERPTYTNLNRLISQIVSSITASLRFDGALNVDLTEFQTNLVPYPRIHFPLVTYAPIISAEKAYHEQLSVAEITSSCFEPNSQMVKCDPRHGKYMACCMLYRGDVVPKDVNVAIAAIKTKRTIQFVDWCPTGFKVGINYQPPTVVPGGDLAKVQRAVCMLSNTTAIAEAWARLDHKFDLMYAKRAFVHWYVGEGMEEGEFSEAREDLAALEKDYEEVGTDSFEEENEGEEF
UniProt P0DPH7, whole entry, looked up: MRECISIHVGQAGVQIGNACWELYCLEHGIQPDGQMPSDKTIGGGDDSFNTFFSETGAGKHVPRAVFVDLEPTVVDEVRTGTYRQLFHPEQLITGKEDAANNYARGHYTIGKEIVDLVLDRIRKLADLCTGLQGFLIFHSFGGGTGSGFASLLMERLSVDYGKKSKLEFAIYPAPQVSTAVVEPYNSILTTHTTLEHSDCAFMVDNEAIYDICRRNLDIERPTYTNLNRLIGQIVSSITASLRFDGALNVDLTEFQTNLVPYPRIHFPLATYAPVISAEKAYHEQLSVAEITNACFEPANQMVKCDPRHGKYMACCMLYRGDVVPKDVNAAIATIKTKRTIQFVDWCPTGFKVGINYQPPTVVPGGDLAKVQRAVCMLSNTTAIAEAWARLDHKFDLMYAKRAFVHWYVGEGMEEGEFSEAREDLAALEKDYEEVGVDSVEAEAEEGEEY
UniProt Q9NNW7, whole entry, looked up: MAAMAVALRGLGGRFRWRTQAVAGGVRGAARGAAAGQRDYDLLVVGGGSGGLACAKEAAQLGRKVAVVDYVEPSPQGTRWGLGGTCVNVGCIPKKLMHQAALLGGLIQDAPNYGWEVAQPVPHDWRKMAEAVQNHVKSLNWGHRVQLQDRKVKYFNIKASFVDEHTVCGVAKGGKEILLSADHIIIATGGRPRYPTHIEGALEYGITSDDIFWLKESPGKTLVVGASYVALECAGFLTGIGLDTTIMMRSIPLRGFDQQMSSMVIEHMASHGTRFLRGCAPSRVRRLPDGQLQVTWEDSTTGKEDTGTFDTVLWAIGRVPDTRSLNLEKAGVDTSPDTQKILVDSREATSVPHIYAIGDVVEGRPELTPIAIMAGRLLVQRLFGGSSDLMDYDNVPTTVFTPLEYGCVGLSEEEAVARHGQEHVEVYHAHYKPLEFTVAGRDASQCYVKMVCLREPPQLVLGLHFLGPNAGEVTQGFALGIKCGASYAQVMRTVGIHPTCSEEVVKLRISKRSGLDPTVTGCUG
UniProt Q9NV66: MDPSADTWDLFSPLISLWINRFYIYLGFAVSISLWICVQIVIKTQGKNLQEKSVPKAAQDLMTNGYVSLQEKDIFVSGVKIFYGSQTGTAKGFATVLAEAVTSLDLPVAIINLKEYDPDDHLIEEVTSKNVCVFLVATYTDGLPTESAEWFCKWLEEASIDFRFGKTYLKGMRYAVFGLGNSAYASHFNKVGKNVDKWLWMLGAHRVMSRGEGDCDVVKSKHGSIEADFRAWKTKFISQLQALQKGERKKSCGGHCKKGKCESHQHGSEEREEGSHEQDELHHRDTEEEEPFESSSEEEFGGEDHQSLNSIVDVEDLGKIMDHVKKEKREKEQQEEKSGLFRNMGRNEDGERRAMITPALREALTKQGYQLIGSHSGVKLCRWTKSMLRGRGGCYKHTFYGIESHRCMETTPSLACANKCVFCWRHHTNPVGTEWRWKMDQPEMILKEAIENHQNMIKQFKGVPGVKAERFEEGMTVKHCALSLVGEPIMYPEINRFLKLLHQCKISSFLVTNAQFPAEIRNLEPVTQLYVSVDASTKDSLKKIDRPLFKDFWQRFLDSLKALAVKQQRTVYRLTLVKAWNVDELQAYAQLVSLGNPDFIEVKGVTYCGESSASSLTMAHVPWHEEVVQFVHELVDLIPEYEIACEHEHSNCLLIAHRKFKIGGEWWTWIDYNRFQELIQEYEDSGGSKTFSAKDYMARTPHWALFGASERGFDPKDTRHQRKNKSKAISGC
UniProt Q9Y385: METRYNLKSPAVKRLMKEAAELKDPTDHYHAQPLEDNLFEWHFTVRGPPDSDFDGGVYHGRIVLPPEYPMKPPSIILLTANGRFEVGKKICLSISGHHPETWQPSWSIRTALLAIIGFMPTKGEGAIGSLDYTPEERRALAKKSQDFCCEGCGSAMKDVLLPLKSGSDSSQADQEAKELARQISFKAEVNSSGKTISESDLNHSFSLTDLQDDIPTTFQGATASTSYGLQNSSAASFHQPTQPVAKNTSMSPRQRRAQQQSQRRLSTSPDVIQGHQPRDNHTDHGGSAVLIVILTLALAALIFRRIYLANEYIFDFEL
UniProt Q969T4: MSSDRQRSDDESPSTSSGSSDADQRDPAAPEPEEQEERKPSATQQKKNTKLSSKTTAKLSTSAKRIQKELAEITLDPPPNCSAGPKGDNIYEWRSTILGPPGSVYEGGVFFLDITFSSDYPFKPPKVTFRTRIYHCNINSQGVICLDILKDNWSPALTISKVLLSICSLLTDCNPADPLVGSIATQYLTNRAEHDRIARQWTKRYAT
UniProt A6NHL2: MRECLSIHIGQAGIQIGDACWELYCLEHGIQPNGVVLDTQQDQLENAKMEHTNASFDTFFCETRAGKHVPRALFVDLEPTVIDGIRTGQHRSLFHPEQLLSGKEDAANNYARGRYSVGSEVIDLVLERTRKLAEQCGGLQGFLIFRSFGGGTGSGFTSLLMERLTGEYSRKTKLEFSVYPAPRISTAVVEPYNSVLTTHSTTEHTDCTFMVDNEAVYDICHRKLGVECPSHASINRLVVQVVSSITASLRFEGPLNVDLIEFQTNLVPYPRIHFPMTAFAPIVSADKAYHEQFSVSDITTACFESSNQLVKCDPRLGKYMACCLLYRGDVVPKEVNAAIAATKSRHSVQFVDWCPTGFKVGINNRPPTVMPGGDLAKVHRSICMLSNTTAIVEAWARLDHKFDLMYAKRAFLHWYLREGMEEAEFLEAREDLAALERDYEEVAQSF
UniProt P0CG48, whole entry, looked up: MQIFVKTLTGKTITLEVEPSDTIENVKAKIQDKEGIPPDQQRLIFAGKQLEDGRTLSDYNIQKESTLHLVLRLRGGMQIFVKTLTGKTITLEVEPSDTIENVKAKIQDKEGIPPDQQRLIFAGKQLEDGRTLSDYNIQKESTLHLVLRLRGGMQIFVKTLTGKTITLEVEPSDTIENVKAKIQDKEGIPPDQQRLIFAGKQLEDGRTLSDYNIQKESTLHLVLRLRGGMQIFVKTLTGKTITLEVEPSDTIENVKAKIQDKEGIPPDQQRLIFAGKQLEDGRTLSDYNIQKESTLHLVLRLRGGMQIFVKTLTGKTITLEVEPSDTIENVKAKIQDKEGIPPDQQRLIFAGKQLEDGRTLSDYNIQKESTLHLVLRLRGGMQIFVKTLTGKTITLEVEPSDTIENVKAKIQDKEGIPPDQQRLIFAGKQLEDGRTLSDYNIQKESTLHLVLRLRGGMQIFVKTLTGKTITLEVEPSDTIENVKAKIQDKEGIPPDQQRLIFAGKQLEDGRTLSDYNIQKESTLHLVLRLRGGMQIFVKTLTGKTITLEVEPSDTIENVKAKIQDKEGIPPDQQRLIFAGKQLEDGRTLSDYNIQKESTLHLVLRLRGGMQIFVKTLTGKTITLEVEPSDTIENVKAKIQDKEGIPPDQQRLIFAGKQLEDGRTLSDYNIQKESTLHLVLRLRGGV
UniProt Q9BQE3, whole entry, looked up: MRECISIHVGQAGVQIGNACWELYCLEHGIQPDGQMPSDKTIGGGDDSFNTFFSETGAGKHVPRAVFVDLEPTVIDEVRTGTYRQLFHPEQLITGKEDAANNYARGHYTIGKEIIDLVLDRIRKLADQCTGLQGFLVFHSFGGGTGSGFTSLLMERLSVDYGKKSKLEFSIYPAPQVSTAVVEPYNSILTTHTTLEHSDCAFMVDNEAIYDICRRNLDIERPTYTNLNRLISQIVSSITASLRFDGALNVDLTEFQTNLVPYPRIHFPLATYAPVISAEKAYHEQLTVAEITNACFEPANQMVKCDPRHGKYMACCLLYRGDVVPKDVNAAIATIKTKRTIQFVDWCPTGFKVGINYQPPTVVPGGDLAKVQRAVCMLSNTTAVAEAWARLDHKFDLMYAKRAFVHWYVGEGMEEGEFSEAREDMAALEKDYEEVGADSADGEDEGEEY
UniProt O43396: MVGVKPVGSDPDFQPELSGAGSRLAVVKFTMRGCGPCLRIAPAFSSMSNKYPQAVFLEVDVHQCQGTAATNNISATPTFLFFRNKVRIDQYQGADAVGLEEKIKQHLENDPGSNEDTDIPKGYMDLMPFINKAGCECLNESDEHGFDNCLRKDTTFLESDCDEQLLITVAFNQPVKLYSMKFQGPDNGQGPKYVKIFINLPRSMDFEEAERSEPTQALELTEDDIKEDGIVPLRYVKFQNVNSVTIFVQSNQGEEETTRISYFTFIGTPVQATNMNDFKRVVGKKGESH
UniProt Q9H4B7, whole entry, looked up: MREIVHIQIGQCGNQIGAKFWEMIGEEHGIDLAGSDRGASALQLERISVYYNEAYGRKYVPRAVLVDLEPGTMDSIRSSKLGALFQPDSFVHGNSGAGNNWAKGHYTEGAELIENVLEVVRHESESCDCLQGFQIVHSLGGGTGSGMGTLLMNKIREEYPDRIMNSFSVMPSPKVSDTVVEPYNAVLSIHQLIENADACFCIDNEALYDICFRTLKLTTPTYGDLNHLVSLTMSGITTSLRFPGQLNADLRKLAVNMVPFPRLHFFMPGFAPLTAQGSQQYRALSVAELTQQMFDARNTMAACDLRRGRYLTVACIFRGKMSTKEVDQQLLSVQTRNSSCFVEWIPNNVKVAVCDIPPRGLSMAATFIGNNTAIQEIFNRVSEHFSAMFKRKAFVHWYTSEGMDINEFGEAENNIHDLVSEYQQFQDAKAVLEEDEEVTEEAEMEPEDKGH
UniProt P62256: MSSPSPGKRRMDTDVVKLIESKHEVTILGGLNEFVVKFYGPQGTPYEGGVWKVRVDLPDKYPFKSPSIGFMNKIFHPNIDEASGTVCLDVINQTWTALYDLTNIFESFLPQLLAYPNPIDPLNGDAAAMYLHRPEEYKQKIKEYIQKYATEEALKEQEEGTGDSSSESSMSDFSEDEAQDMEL
UniProt Q712K3: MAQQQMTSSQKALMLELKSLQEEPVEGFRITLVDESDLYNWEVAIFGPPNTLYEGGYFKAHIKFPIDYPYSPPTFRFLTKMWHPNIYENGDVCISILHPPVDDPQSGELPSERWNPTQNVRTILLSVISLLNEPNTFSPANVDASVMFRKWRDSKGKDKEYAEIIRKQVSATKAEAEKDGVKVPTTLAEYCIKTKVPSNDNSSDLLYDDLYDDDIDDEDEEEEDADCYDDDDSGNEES
UniProt Q05086: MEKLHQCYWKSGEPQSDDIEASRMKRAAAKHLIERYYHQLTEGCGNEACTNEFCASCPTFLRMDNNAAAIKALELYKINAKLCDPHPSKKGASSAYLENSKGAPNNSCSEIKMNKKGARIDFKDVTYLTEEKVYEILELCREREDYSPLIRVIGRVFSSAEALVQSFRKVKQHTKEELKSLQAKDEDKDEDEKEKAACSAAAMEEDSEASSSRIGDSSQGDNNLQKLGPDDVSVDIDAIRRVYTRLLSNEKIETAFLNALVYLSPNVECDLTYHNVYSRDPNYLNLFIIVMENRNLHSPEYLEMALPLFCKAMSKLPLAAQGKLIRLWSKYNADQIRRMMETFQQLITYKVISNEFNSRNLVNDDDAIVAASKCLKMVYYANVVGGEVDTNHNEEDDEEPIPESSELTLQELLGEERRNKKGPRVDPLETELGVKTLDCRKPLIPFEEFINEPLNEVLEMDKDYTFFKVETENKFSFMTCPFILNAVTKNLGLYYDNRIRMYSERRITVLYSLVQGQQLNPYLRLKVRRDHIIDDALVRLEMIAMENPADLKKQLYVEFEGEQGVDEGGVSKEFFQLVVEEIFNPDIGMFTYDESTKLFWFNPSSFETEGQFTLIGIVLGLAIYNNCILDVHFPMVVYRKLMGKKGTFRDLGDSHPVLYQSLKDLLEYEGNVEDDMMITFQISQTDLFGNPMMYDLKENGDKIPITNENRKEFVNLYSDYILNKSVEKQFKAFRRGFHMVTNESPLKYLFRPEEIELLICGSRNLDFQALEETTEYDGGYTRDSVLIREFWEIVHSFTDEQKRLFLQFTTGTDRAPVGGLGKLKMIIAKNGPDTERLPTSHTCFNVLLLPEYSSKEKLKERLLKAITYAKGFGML
UniProt Q01081: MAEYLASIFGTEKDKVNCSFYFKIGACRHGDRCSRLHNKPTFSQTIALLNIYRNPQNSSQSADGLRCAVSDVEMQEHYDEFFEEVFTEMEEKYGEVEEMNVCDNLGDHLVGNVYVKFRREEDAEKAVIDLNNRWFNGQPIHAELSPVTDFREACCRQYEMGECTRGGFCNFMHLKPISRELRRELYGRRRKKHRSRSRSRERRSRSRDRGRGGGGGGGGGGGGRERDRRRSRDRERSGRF

Experiments:
Experiment in all cases: log2 fold change, soluble protein after heating vs DMSO (PISA); higher = thermal stabilisation; K562 cells, 10 uM, 30 min; active = over 0.2 and 3.5 SD of the protein, either way, in both replicates (recomputed)
[1] = compound: COC1=CC=C(C=C1)CN2C=CC3=C2C=C(C=C3)C(=O)NO
In short: (§1)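 Quantification of soluble protein used TMTpro 16plex LC-MS/MS, with channel sums equalised. Samples were the supernatant after 21,000xg for 90 min of pooled aliquots from K562 cells (2×10^6 cells/mL) treated with 10 μM compound for 30 min, heated for 3 min over 48°C-58°C, and extracted in PBS with 0.5% NP-40 at 4°C. Values, from duplicates, describe thermal stability against control samples on a log2 fold-change scale.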

filanesib = compound: CON(C)C(=O)N1N=C(c2cc(F)ccc2F)S[C@@]1(CCCN)c1ccccc1 [filanesib]
In short: as §1

zotarolimus = compound: CO[C@H]1C[C@@H]2CC[C@@H](C)[C@@](O)(O2)C(=O)C(=O)N2CCCC[C@H]2C(=O)O[C@H]([C@H](C)C[C@@H]2CC[C@H](n3cnnn3)[C@H](OC)C2)CC(=O)[C@H](C)/C=C(\C)[C@@H](O)[C@@H](OC)C(=O)[C@H](C)C[C@H](C)/C=C/C=C/C=C/1C [zotarolimus]
In short: as §1

idasanutlin = compound: COc1cc(C(=O)O)ccc1NC(=O)[C@@H]1N[C@@H](CC(C)(C)C)[C@](C#N)(c2ccc(Cl)cc2F)[C@H]1c1cccc(Cl)c1F [idasanutlin]
In short: as §1

alisertib = compound: COc1cc(Nc2ncc3c(n2)-c2ccc(Cl)cc2C(c2c(F)cccc2OC)=NC3)ccc1C(=O)O [alisertib]
In short: as §1

[2] = compound: COc1cc2nc(-c3cc(F)ccc3O)nc(N[C@@H]3CNC[C@H]3C(C)(C)O)c2cc1OC
In short: as §1

gefitinib = compound: COc1cc2ncnc(Nc3ccc(F)c(Cl)c3)c2cc1OCCCN1CCOCC1 [gefitinib]
In short: as §1

[3] = compound: COc1cccc2cc(-c3nc([C@H]4CC[C@H](C(=O)O)CC4)n4ncnc(N)c34)[nH]c12
In short: as §1

lapatinib = compound: CS(=O)(=O)CCNCc1ccc(-c2ccc3ncnc(Nc4ccc(OCc5cccc(F)c5)c(Cl)c4)c3c2)o1 [lapatinib]
In short: as §1

pictilisib = compound: CS(=O)(=O)N1CCN(Cc2cc3nc(-c4cccc5[nH]ncc45)nc(N4CCOCC4)c3s2)CC1 [pictilisib]
In short: as §1

[4] = compound: CS(=O)(=O)c1ccc(-c2cnc(N)c(C(=O)Nc3ccccc3)n2)cc1
In short: as §1

crizotinib = compound: C[C@@H](Oc1cc(-c2cnn(C3CCNCC3)c2)cnc1N)c1c(Cl)ccc(F)c1Cl [crizotinib]
In short: as §1

[5] = compound: C[C@@H]1COCCN1C2=NC(=NC(=C2)C3(CC3)S(=O)(=O)C)C4=C5C=CNC5=CC=C4
In short: as §1

[6] = compound: C[C@H](C1=CC=C(C=C1)C(=O)NC2=C3C=CNC3=NC=C2)N
In short: as §1

gandotinib = compound: Cc1cc(Nc2cc(CN3CCOCC3)c3nc(C)c(Cc4ccc(Cl)cc4F)n3n2)n[nH]1 [gandotinib]
In short: as §1

tozasertib = compound: Cc1cc(Nc2cc(N3CCN(C)CC3)nc(Sc3ccc(NC(=O)C4CC4)cc3)n2)n[nH]1 [tozasertib]
In short: as §1

doramapimod = compound: Cc1ccc(-n2nc(C(C)(C)C)cc2NC(=O)Nc2ccc(OCCN3CCOCC3)c3ccccc23)cc1 [doramapimod]
In short: as §1

ispinesib = compound: Cc1ccc(C(=O)N(CCCN)[C@@H](c2nc3cc(Cl)ccc3c(=O)n2Cc2ccccc2)C(C)C)cc1 [ispinesib]
In short: as §1

[7] = compound: Cc1cc(SCc2sc(-c3ccc(C(F)(F)F)cc3)nc2C)ccc1OCC(=O)O
In short: as §1

duvelisib = compound: C[C@H](Nc1ncnc2nc[nH]c12)c1cc2cccc(Cl)c2c(=O)n1-c1ccccc1 [duvelisib]
In short: as §1

Measured: log2 fold change

TUBA8 (UniProt Q9NY65)
inactive: [1] -0.209 | filanesib 0.612 | zotarolimus -0.076 | idasanutlin 0.076 | alisertib -0.213 | [2] 0.019 | gefitinib -0.071 | [3] 0.008 | lapatinib 0.04 | pictilisib -0.03 | [4] -0.076 | crizotinib 0.069 | [5] -0.548 | [6] 0.816 | gandotinib 0.144 | tozasertib -0.117 | doramapimod 0.532 | ispinesib -0.545

UBA6
inactive: [1] 0.021 | filanesib -0.01 | zotarolimus 0.051 | idasanutlin -0.016 | alisertib -0.04 | [2] -0.031 | gefitinib 0.029 | [3] -0.069 | lapatinib 0.022 | pictilisib 0.004 | [4] 0.05 | crizotinib 0.024 | [5] 0.047 | [6] -0.017 | gandotinib -0.039 | [7] 0.078 | doramapimod -0.038 | ispinesib 0.014

TUBA3C (UniProt P0DPH7)
inactive: [1] -0.029 | filanesib -0.068 | zotarolimus 0.008 | idasanutlin -0.047 | alisertib -0.018 | [2] 0.007 | gefitinib -0.046 | [3] 0.07 | lapatinib 0.051 | pictilisib 0.087 | [4] 0.089 | crizotinib -0.089 | [5] 0.012 | [6] 0.007 | duvelisib 0.3 | gandotinib -0.04 | tozasertib -0.064 | [7] 0.068 | doramapimod 0.086 | ispinesib -0.021

2 records picked at random from the list so far:
UBA6
inactive: [1] 0.021 | filanesib -0.01 | zotarolimus 0.051 | idasanutlin -0.016 | alisertib -0.04 | [2] -0.031 | gefitinib 0.029 | [3] -0.069 | lapatinib 0.022 | pictilisib 0.004 | [4] 0.05 | crizotinib 0.024 | [5] 0.047 | [6] -0.017 | gandotinib -0.039 | [7] 0.078 | doramapimod -0.038 | ispinesib 0.014

TUBA3C (UniProt P0DPH7)
inactive: [1] -0.029 | filanesib -0.068 | zotarolimus 0.008 | idasanutlin -0.047 | alisertib -0.018 | [2] 0.007 | gefitinib -0.046 | [3] 0.07 | lapatinib 0.051 | pictilisib 0.087 | [4] 0.089 | crizotinib -0.089 | [5] 0.012 | [6] 0.007 | duvelisib 0.3 | gandotinib -0.04 | tozasertib -0.064 | [7] 0.068 | doramapimod 0.086 | ispinesib -0.021

Further entries:

TXNRD2 (UniProt Q9NNW7)
inactive: [1] 0.028 | filanesib -0.019 | zotarolimus 0.025 | idasanutlin -0.012 | alisertib 0.037 | [2] -0.009 | gefitinib 0.012 | [3] 0.032 | lapatinib -0.03 | pictilisib 0.011 | [4] 0.024 | crizotinib -0.006 | [5] -0.073 | [6] -0.107 | duvelisib 0.065 | gandotinib -0.014 | tozasertib -0.021 | [7] -0.024 | doramapimod 0.004 | ispinesib 0.007

TYW1 (UniProt Q9NV66)
inactive: [1] -0.16 | filanesib -0.01 | zotarolimus 0.019 | idasanutlin -0.023 | alisertib 0 | [2] 0.095 | gefitinib 0.013 | [3] -0.006 | lapatinib 0 | pictilisib -0.147 | [4] 0.038 | crizotinib 0.143 | [5] 0.032 | [6] 0.053 | gandotinib -0.004 | [7] 0.021 | doramapimod 0.008 | ispinesib 0.179

UBE2J1 (UniProt Q9Y385)
inactive: [1] -0.209 | filanesib 0.119 | zotarolimus 0.046 | idasanutlin -0.12 | alisertib -0.259 | [2] 0.232 | gefitinib -0.035 | [3] 0.241 | lapatinib -0.064 | pictilisib -0.081 | [4] 0.06 | crizotinib -0.172 | [5] 0.026 | [6] -0.043 | gandotinib -0.151 | [7] -0.01 | doramapimod -0.26 | ispinesib -0.016

UBE2E3 (UniProt Q969T4)
inactive: [1] -0.077 | filanesib -0.046 | zotarolimus -0.013 | idasanutlin -0.075 | alisertib -0.045 | [2] 0.108 | gefitinib -0.076 | [3] 0.022 | lapatinib -0.021 | pictilisib 0.089 | [4] 0.008 | crizotinib 0 | [5] 0.219 | [6] 0.008 | gandotinib -0.052 | [7] 0.034 | doramapimod 0.03 | ispinesib -0.005

TUBAL3 (UniProt A6NHL2)
inactive: [1] -0.037 | filanesib -0.058 | zotarolimus -0.064 | idasanutlin -0.218 | alisertib 0.048 | [2] 0 | gefitinib -0.059 | [3] 0.015 | lapatinib 0.075 | pictilisib 0.052 | [4] -0.097 | crizotinib -0.128 | [5] 0.161 | [6] 0.02 | gandotinib -0.165 | [7] -0.02 | doramapimod 0.113 | ispinesib -0.108

UBC (UniProt P0CG48)
inactive: [1] -0.064 | filanesib 0.09 | zotarolimus 0.048 | idasanutlin 0 | alisertib -0.002 | [2] 0.06 | gefitinib 0.038 | [3] 0.018 | lapatinib -0.101 | pictilisib 0.008 | [4] -0.003 | crizotinib 0.208 | [5] 0.05 | [6] 0.064 | gandotinib 0.014 | [7] -0.009 | doramapimod 0.035 | ispinesib 0.091

TTI1 (UniProt O43156)
inactive: [1] -0.031 | filanesib 0.081 | zotarolimus 0.091 | idasanutlin -0.097 | alisertib -0.112 | [2] 0.02 | gefitinib -0.057 | [3] -0.019 | lapatinib -0.008 | pictilisib 0.049 | [4] 0.075 | crizotinib -0.143 | [5] 0.003 | [6] 0.059 | gandotinib -0.119 | [7] 0.033 | doramapimod 0.059 | ispinesib -0.204

TUBA1C (UniProt Q9BQE3)
inactive: [1] 0.042 | filanesib -0.109 | zotarolimus 0.033 | idasanutlin -0.029 | alisertib -0.127 | [2] 0.025 | gefitinib 0.014 | [3] 0.032 | lapatinib -0.026 | pictilisib 0.018 | [4] 0.017 | crizotinib -0.089 | [5] 0.063 | [6] -0.007 | duvelisib 0.044 | gandotinib -0.016 | tozasertib -0.057 | [7] 0.038 | doramapimod 0.025 | ispinesib 0.047

TXNL1 (UniProt O43396)
inactive: [1] 0.169 | filanesib 0.075 | zotarolimus 0.047 | idasanutlin -0.003 | alisertib -0.005 | [2] 0.084 | gefitinib 0.05 | [3] -0.001 | lapatinib 0.006 | pictilisib 0.017 | [4] 0.027 | crizotinib 0.067 | [5] -0.01 | [6] -0.028 | gandotinib -0.076 | [7] 0.068 | doramapimod -0.049 | ispinesib 0.07

TUBB1 (UniProt Q9H4B7)
inactive: [1] 0.125 | filanesib -0.1 | zotarolimus 0.044 | idasanutlin -0.025 | alisertib -0.008 | [2] 0.023 | gefitinib 0.028 | [3] 0.02 | lapatinib 0.058 | pictilisib -0.048 | [4] 0.001 | crizotinib -0.07 | [5] 0.042 | [6] -0.086 | duvelisib 0.033 | gandotinib -0.03 | tozasertib -0.02 | [7] 0.007 | doramapimod -0.004 | ispinesib 0.114

UBE2H (UniProt P62256)
inactive: [1] -0.017 | filanesib 0.049 | zotarolimus -0.025 | idasanutlin 0.015 | alisertib -0.061 | [2] 0.065 | gefitinib 0.051 | [3] -0.048 | lapatinib 0.004 | pictilisib 0.082 | [4] -0.028 | crizotinib 0.024 | [5] 0.005 | [6] -0.032 | duvelisib 0.017 | gandotinib -0.091 | tozasertib 0.023 | [7] -0.009 | doramapimod -0.044 | ispinesib 0.044

UBE2R2 (UniProt Q712K3)
inactive: [1] 0.116 | filanesib -0.038 | zotarolimus -0.004 | idasanutlin -0.041 | alisertib -0.041 | [2] -0.007 | gefitinib 0.002 | [3] 0.046 | lapatinib -0.023 | pictilisib 0.035 | [4] 0.027 | crizotinib 0.084 | [5] 0.079 | [6] -0.066 | duvelisib 0.011 | gandotinib -0.04 | tozasertib 0.097 | [7] 0.033 | doramapimod -0.028 | ispinesib 0.042

UBE3A (UniProt Q05086)
inactive: [1] 0.021 | filanesib -0.037 | zotarolimus 0.017 | idasanutlin -0.084 | alisertib -0.038 | [2] -0.012 | gefitinib 0 | [3] 0.05 | lapatinib 0.027 | pictilisib 0.011 | [4] 0.016 | crizotinib -0.007 | [5] 0.077 | [6] -0.022 | duvelisib 0.022 | gandotinib -0.018 | tozasertib 0.003 | [7] 0.024 | doramapimod -0.006 | ispinesib 0.03

U2AF1 isoform 2 (UniProt Q01081)
inactive: [1] 0.165 | filanesib 0.034 | zotarolimus 0.043 | idasanutlin 0.055 | alisertib -0.019 | [2] 0.06 | gefitinib 0.036 | [3] 0.045 | lapatinib 0 | pictilisib 0.069 | [4] -0.046 | crizotinib 0.067 | [5] 0.03 | [6] -0.134 | gandotinib -0.005 | [7] 0.114 | doramapimod -0.143 | ispinesib 0
